Reference: PMC7751120
No constants are given. Whether binding was seen depends on the method and setting. Binding seen in cells or lysates may run through a third protein. These calls come from enrichment with a bait or labelling near it, and not all partners need be listed. Sequences can lack the tags named with a protein. One block for each binder: values may come before it.

What was measured:
[1] = target: T1, RnfB with C-terminal His-tag (Acetobacterium woodii) (UniProt H6LC27); assay: affinity purification with mass spectrometry; Ni2+-NTA purification by the C-terminal His-tags on RnfB and RnfG from DDM-solubilised membranes of A. woodii Δrnf pMTL_8312_Ptet_rnf, anoxic, 4 °C, 50 mM Tris-HCl pH 8.0, 20 mM MgSO4, 0.02% DDM, 5 µM FMN; washed with 20 mM and eluted with 150 mM imidazole; pooled fractions E2 and E3 analysed by SDS-PAGE, Western blot and MALDI-TOF peptide mass fingerprinting
T1 sequence: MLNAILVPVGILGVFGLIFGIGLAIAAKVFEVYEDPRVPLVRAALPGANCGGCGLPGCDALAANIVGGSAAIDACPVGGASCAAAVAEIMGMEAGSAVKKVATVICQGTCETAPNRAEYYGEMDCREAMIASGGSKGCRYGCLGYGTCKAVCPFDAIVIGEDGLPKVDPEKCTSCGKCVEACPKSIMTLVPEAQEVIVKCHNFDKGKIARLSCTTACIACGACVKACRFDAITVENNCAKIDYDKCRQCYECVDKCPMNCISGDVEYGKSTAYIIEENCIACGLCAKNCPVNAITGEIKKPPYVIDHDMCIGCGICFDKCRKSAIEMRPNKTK

[2] = target: T2, RnfG with C-terminal His-tag (Acetobacterium woodii) (UniProt H6LC30); assay: as above
T2 sequence (chain, covalently bound FMN (residue not stated)): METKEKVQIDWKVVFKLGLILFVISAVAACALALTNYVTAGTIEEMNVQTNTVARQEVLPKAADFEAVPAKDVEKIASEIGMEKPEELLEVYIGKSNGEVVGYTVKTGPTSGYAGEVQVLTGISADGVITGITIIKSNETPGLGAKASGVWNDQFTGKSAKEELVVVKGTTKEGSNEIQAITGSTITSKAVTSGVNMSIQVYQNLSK

binding [1]: binds
B1: RnfD (protein, UniProt H6LC31 1-318)
chain: MNELNLTVSSSPHIRAKHSTASIMQNVIIALLPALAVAGYVFGLWALALVAICVISSVATEAVIQKLLKKPITVNDWSAVVTGVLLAFNLPINAPWWIGVVGSVFAIAIVKQCFGGLGQNFINPALAARAFLLASWPGHMTSTAYIPLTDTVTTATPLALLKAGETGSMPSTLDLFTGLNGVYGCIGEISALALLIGGLYLIYKGIISWRIPTIYLLTIAIFALLVGQDPIVHMVSGGVMLGAFFMATDYASSPVTAKGQIIYAIGCGLITMIIRLYGGYPEGCSYSILLMNVATPLIERFTKERIYGVTKIKKEAKA
modifications: covalently bound FMN (residue not stated)
binding [2]: binds

binding [1]: binds
B2: RnfA (protein, UniProt H6LC28 1-192)
chain: MTLIFIMISAIFVNNFVLSRFLGICPFLGVSKQVETAVGMGVAVTFVMALASAITYVVQYAILDPLSLGYLQTIAFILIIAALVQLVEMIIKKSSPSLYQALGVYLPLITTNCAVLGVALINIQNEYNFIETIFNGVGAALGFTLAIVLFAGIRERLETSAVPKALEGFPIALLTAGLMAIAFLGFSGMKLG
binding [2]: binds

binding [1]: binds
B3: RnfC with N-terminal Strep-tag (protein, UniProt H6LC32 1-443)
chain: MNVKHGTFKGGIHPPYRKESTAEVPLGFGKKPEMVIIPMSLHIGAPCTPIVKKGDTVFLGQRVGEPNGFVSVPVHASVSGKVIAVEERPHASGDRVMSVVIESDGLDTIDPSIKPYGTLEDMDADAIKKMVLNAGIVGLGGATFPTHVKLAIPPDKKVDCVVLNGAECEPYLTADHHLMTSQAEKVVMGLKLAMKSVGVEKGFIGVEDNKTDAIEALVKAIGNDSRLEVYSLHTKYPQGAEKQLIAAITGREVPSGALPADAGVVVMNVGTAAQIAESMITGLPLYKRYLTCTGDAIKNPQTIEIRIGVPFQSVIDQCGGFSSEPGKVISGGPMMGVTQFVTDIPVMKGTSGILCLTKESAKIATPSNCIHCGKCVGVCPIHLQPLNIAEYSQRNMWDKCESNNAMDCIECGSCSYICPAKRTLVSSIRVAKREIIAQRRKGN
binding [2]: binds
